The results in this text go back to PMC12011380.

The chains behind the UniProt entries cited, without tags or fusion partners.
UniProt P53350: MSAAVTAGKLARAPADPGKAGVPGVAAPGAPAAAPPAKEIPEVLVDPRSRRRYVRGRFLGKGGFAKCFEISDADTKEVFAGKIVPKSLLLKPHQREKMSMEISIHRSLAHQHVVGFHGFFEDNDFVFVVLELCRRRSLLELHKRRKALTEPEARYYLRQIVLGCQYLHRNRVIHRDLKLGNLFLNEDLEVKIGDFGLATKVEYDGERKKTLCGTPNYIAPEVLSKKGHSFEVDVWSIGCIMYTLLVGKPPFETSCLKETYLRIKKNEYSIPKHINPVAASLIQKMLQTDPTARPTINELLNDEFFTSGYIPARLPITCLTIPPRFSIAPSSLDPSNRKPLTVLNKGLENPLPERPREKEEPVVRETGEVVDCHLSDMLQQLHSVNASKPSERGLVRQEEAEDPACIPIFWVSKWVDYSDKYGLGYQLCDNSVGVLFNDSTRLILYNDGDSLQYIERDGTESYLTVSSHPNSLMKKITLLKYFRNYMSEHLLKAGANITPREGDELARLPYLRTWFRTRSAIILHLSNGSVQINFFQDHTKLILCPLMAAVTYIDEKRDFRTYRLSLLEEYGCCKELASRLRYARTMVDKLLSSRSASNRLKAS
UniProt Q14980: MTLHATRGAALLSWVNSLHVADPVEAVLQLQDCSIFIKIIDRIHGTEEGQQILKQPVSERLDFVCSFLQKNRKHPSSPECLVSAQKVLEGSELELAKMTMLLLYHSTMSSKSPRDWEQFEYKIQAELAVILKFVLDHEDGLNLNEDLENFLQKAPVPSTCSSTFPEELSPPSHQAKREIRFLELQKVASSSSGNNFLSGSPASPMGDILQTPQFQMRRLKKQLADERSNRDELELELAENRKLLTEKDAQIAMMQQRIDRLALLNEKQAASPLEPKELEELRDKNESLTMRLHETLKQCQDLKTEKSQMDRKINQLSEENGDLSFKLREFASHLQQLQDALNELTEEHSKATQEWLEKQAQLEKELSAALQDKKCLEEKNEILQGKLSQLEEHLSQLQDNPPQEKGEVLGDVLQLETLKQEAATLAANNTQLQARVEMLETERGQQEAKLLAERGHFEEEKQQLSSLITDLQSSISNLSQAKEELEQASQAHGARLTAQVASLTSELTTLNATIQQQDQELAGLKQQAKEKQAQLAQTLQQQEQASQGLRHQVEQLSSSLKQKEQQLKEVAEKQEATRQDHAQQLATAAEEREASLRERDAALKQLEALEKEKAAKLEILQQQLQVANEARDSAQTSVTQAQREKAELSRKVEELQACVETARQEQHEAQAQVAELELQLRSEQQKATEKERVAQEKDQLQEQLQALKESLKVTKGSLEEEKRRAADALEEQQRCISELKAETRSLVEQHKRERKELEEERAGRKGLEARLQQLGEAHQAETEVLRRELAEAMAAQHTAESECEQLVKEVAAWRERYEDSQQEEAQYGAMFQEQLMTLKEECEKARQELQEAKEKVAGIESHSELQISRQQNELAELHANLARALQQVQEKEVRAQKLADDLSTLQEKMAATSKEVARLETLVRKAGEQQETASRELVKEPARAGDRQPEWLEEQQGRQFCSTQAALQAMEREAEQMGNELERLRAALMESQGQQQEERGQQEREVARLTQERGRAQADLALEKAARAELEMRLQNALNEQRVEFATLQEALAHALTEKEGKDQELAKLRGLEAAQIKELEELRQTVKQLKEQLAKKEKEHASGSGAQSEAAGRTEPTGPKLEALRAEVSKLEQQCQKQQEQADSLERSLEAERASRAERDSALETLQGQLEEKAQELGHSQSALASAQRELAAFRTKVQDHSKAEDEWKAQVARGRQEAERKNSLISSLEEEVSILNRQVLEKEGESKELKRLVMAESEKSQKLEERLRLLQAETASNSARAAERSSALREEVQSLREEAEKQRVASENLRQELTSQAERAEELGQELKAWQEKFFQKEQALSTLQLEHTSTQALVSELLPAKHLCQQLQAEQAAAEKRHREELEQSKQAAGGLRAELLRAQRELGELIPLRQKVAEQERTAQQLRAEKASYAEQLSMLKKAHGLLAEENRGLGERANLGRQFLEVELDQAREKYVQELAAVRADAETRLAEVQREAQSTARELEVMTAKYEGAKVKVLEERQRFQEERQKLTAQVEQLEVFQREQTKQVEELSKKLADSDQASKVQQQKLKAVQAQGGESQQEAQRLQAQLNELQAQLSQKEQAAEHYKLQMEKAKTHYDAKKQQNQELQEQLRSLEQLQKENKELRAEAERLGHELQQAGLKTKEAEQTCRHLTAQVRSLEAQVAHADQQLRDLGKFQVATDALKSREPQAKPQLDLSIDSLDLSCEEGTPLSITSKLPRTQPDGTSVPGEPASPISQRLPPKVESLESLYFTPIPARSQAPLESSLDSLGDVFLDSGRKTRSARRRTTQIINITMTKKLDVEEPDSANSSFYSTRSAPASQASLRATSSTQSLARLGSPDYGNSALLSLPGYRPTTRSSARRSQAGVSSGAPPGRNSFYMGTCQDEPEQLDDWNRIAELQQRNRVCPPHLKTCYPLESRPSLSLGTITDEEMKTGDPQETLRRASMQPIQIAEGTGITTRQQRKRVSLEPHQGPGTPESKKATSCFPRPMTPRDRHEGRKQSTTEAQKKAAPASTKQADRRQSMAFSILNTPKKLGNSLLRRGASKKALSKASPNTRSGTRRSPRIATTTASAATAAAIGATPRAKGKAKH
UniProt Q9H2G2: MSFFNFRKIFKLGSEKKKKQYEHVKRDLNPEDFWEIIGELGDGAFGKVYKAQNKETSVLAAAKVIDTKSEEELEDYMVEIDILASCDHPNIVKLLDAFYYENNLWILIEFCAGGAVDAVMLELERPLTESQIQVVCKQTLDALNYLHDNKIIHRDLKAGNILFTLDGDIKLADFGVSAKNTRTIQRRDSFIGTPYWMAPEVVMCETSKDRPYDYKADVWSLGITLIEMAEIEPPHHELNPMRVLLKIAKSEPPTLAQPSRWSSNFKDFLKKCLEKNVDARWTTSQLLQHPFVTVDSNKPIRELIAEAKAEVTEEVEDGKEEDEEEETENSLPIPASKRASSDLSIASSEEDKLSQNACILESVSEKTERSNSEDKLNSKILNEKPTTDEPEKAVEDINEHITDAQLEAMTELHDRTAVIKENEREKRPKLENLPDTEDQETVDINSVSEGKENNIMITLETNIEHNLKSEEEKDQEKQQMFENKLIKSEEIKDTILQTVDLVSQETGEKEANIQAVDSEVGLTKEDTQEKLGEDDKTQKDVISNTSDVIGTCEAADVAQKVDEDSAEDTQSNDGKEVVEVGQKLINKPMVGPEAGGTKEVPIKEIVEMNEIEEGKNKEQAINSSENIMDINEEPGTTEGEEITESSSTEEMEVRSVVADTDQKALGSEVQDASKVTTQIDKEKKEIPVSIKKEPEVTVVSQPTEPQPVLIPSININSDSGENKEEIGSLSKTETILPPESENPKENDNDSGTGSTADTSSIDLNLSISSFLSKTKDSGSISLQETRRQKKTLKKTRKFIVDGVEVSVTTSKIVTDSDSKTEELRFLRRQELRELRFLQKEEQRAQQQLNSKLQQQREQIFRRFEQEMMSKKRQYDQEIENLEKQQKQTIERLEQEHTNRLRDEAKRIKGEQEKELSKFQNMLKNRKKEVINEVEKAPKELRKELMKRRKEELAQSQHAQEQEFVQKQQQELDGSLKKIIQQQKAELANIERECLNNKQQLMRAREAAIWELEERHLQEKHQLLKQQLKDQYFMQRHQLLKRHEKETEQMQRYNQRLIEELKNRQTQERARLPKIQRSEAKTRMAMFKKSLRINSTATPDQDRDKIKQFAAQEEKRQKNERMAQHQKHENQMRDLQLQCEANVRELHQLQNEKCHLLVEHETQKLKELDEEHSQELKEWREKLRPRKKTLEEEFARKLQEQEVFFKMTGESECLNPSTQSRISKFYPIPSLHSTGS

Assay [1] deals with T1, FANCA (human (endogenous in HeLa)) (UniProt O15360).
T1 sequence: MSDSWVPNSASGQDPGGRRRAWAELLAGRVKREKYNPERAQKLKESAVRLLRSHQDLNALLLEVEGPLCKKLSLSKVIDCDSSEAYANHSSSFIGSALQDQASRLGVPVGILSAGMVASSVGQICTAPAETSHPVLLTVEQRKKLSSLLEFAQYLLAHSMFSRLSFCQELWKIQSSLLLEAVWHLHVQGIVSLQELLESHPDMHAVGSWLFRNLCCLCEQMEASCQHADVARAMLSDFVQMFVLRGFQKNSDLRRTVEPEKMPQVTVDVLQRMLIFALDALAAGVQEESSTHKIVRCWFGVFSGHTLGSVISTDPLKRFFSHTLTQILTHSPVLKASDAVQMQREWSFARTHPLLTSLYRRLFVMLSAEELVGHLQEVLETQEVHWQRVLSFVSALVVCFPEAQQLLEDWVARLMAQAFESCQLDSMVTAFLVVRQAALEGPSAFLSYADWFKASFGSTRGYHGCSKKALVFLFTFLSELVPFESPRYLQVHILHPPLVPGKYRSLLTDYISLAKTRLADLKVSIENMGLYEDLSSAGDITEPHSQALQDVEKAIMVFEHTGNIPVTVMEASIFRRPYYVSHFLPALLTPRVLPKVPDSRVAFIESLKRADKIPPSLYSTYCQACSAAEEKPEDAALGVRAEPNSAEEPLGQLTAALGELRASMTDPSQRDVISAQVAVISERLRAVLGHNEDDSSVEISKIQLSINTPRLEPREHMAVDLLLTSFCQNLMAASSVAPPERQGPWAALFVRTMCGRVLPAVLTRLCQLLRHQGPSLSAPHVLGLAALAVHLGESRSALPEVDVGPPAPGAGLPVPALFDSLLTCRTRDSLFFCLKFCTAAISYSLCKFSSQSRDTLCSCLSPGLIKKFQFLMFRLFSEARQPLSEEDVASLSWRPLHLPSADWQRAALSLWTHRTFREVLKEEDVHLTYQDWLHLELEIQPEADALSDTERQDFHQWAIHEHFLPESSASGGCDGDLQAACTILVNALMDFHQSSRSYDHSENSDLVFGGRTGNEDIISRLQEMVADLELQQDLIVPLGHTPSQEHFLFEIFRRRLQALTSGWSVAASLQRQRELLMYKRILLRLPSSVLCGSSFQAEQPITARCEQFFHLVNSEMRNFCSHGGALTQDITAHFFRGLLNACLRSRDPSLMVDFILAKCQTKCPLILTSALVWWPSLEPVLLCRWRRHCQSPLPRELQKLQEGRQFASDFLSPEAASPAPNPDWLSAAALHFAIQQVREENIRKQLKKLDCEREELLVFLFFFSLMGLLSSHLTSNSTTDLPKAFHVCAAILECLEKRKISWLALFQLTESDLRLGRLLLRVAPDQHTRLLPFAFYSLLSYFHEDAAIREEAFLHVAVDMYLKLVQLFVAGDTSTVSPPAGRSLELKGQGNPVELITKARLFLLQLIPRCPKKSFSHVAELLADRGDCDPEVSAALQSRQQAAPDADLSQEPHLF
Nature of the assay: affinity purification with mass spectrometry; independent analysis: endogenous FANCA-IP vs. IgG-IP from prometaphase (nocodazole-treated) HeLa cells; on-bead digestion, label-free LC-MS/MS, spectral counts.

Assay [2] addresses T1, FANCA (human (endogenous in HeLa)). As to the kind of experiment: affinity purification with mass spectrometry; endogenous FANCA immunoprecipitated (protein A/G magnetic beads) from lysates of HeLa cells synchronized in G2 (Ro-3306), prometaphase (nocodazole) or metaphase (proTAME); IgG-IP control; on-bead digestion, TMTpro labelling, quantitative LC-MS/MS.

Results are given in words; binding and its absence hold for the method and conditions named. Binding seen in cells or lysates may run through a third protein. These calls come from enrichment with a bait or labelling near it, and not all partners need be listed.

For “polo-like kinase 1 (from UniProt P53350 1-603)”, the binding entry in assay [1] and in assay [2] was “binds” throughout.

As for “nuclear mitotic apparatus 1 (from UniProt Q14980 1-2115)”, in assay [1], the binding entry is reported as “binds”.

Turning to SLK (from UniProt Q9H2G2 1-1235), the binding entry in assay [2] was “binds”.

B1: TTK (protein, UniProt P33981 1-857)
chain: MESEDLSGRELTIDSIMNKVRDIKNKFKNEDLTDELSLNKISADTTDNSGTVNQIMMMANNPEDWLSLLLKLEKNSVPLSDALLNKLIGRYSQAIEALPPDKYGQNESFARIQVRFAELKAIQEPDDARDYFQMARANCKKFAFVHISFAQFELSQGNVKKSKQLLQKAVERGAVPLEMLEIALRNLNLQKKQLLSEEEKKNLSASTVLTAQESFSGSLGHLQNRNNSCDSRGQTTKARFLYGENMPPQDAEIGYRNSLRQTNKTKQSCPFGRVPVNLLNSPDCDVKTDDSVVPCFMKRQTSRSECRDLVVPGSKPSGNDSCELRNLKSVQNSHFKEPLVSDEKSSELIITDSITLKNKTESSLLAKLEETKEYQEPEVPESNQKQWQSKRKSECINQNPAASSNHWQIPELARKVNTEQKHTTFEQPVFSVSKQSPPISTSKWFDPKSICKTPSSNTLDDYMSCFRTPVVKNDFPPACQLSTPYGQPACFQQQQHQILATPLQNLQVLASSSANECISVKGRIYSILKQIGSGGSSKVFQVLNEKKQIYAIKYVNLEEADNQTLDSYRNEIAYLNKLQQHSDKIIRLYDYEITDQYIYMVMECGNIDLNSWLKKKKSIDPWERKSYWKNMLEAVHTIHQHGIVHSDLKPANFLIVDGMLKLIDFGIANQMQPDTTSVVKDSQVGTVNYMPPEAIKDMSSSRENGKSKSKISPKSDVWSLGCILYYMTYGKTPFQQIINQISKLHAIIDPNHEIEFPDIPEKDLQDVLKCCLKRDPKQRISIPELLAHPYVQIQTHPVNQMAKGTTEEMKYVLGQLVGLNSPNSILKAAKTLYEHYSGGESHNSSSSKTFEKKRGKK
In the case of B1, in assay [2], the binding result was “binds”.
